Where two headings read alike, the source gives them in different places. These are yes or no findings as the source states them, for the method shown. Binding seen in cells or lysates may run through a third protein. These calls come from enrichment with a bait or labelling near it, and not all partners need be listed.

Sequences of proteins named here, by UniProt entry; tags and fusion partners are left off. A change or cut given only in a name is not applied to a line headed by its entry.
UniProt Q9UHB6: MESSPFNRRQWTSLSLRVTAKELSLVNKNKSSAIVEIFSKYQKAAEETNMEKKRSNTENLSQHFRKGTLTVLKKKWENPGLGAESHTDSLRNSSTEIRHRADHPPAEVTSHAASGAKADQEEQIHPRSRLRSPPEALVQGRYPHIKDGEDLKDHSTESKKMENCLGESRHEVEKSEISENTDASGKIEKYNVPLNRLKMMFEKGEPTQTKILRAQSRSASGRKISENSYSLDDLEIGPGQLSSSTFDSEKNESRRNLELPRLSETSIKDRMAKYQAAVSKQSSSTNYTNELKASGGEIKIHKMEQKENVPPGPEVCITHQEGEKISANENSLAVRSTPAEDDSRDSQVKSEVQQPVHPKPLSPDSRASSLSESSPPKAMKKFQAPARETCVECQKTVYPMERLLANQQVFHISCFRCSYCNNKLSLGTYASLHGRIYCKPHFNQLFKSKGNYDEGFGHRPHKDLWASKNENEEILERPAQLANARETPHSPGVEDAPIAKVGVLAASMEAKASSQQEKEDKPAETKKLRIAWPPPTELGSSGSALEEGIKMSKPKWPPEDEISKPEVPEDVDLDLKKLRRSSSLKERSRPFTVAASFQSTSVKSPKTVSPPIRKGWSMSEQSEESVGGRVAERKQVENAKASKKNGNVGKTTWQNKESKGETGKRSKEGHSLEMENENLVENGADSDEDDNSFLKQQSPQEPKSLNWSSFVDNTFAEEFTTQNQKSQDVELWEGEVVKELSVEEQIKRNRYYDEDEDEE
UniProt O95425: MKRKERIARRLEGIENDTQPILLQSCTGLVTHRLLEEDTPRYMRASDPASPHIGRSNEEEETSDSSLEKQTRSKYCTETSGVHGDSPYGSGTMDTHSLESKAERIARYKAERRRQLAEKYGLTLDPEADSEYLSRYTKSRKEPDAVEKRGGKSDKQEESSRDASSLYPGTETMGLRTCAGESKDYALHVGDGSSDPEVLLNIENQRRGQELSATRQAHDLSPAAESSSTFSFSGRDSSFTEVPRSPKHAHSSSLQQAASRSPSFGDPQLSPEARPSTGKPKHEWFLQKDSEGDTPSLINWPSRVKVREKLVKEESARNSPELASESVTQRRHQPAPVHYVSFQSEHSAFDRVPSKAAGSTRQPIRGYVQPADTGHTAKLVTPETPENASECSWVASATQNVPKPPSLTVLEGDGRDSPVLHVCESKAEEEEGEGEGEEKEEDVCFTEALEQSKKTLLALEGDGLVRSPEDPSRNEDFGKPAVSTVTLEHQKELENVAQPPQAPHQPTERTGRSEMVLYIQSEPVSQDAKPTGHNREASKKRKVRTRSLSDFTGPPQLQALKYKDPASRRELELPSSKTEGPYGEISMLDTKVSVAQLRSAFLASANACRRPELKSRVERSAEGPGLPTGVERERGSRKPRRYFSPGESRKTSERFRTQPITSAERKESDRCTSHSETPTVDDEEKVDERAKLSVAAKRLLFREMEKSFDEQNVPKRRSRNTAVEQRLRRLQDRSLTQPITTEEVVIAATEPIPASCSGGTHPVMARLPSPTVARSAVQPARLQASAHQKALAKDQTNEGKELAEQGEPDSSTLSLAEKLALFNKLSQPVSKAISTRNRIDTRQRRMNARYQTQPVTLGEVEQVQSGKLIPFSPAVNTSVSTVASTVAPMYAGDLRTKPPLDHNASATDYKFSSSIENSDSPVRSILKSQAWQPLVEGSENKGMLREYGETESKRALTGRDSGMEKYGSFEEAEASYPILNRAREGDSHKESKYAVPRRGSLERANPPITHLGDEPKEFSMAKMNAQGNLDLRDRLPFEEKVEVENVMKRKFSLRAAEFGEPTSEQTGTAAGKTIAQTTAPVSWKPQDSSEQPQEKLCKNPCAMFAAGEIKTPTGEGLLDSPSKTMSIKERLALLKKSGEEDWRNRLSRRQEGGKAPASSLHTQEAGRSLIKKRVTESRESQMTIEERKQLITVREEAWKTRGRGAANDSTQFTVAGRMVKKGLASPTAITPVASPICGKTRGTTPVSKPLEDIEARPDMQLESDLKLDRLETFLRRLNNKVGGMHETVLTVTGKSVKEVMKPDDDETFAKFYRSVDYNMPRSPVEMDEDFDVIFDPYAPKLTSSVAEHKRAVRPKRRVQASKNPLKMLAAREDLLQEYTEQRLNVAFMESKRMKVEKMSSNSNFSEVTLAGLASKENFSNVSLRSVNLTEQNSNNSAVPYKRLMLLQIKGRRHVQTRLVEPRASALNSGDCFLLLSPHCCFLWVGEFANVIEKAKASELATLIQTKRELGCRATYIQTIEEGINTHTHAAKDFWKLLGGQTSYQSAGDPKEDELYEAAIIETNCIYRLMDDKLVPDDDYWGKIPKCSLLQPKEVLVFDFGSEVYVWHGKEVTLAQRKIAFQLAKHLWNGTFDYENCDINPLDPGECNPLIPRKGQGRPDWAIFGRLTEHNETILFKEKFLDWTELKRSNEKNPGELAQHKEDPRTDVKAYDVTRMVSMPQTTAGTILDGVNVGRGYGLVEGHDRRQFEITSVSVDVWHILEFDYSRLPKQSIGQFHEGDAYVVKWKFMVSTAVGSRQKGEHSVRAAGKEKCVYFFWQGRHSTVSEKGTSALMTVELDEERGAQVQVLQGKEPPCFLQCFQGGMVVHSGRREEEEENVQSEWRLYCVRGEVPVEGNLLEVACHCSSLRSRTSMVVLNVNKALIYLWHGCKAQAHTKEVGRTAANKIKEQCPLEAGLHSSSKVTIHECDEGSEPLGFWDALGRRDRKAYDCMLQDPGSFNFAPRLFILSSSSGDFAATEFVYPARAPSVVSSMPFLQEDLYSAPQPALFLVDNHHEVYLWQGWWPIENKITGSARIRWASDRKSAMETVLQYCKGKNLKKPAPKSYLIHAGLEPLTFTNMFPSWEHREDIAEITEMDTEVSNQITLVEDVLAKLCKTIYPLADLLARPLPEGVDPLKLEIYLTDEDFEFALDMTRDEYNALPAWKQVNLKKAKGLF
UniProt P05556: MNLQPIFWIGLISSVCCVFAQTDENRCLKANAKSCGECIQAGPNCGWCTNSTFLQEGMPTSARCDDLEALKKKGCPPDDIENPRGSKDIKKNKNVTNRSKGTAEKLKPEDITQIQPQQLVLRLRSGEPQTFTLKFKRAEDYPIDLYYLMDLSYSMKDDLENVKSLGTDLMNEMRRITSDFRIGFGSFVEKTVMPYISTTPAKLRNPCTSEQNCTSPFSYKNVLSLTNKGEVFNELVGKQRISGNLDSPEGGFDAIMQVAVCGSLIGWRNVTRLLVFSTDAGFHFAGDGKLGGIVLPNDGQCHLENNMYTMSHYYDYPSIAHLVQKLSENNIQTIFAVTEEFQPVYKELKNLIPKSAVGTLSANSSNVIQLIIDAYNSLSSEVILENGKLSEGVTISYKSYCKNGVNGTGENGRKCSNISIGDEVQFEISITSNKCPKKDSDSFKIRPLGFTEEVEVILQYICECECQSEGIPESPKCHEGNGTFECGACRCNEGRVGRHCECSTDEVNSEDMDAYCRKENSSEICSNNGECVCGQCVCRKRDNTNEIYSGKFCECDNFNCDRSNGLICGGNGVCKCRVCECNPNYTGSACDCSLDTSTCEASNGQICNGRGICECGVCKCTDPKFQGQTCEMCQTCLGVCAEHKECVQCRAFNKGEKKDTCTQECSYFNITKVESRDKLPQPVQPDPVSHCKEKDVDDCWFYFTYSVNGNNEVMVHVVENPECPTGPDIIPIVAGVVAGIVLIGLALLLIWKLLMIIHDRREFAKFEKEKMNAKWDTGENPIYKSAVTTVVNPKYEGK

In assay [1] the target is Yes-associated protein (YAP) (human (endogenous in MCF10A)) (UniProt P46937). Kind of assay: affinity purification with mass spectrometry; endogenous YAP immunoprecipitated (anti-YAP on Dynabeads) from MCF10A cells crosslinked with 5 mM DTSSP while sparsely or densely plated on 2D tissue culture plastic; bound fraction by SDS-PAGE and UPLC-MS/MS; common contaminants excluded.

The target is the same in assay [2]. Described as above. This is another data set of the same source.

With LIMA1 (from UniProt Q9UHB6 1-759), the binding entry in assay [1] was “binds”. “supervillin (from UniProt O95425 1-2214)”: the binding result in assay [1] is on record as “binds”. On to “β1 integrin (from UniProt P05556 21-798) (receptor)”, for which the binding result in assay [1] was “binds”.

B1: ODP2 (protein, UniProt P10515 87-647)
chain: SLPPHQKVPLPSLSPTMQAGTIARWEKKEGDKINEGDLIAEVETDKATVGFESLEECYMAKILVAEGTRDVPIGAIICITVGKPEDIEAFKNYTLDSSAAPTPQAAPAPTPAATASPPTPSAQAPGSSYPPHMQVLLPALSPTMTMGTVQRWEKKVGEKLSEGDLLAEIETDKATIGFEVQEEGYLAKILVPEGTRDVPLGTPLCIIVEKEADISAFADYRPTEVTDLKPQVPPPTPPPVAAVPPTPQPLAPTPSAPCPATPAGPKGRVFVSPLAKKLAVEKGIDLTQVKGTGPDGRITKKDIDSFVPSKVAPAPAAVVPPTGPGMAPVPTGVFTDIPISNIRRVIAQRLMQSKQTIPHYYLSIDVNMGEVLLVRKELNKILEGRSKISVNDFIIKASALACLKVPEANSSWMDTVIRQNHVVDVSVAVSTPAGLITPIVFNAHIKGVETIANDVVSLATKAREGKLQPHEFQGGTFTISNLGMFGIKNFSAIINPPQACILAIGASEDKLVPADNEKGFDVASMMSVTLSCDHRVVDGAVGAQWLAEFRKYLEKPITMLL
On to B1, for which the binding entry in assay [2] is “binds”.

Values taken from PMC6868278.
